From article doi:10.1101/2025.05.20.655064 come the findings set out here.

Protein sequences, listed by entry. Tags and fused reporters are not part of them. Residues count along the entry.
UniProt P01375, residues 77-233: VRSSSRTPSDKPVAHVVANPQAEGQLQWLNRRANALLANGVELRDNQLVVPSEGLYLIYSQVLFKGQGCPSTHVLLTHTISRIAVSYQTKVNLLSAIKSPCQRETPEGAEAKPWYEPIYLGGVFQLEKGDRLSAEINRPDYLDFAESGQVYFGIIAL
UniProt Q9UHD2: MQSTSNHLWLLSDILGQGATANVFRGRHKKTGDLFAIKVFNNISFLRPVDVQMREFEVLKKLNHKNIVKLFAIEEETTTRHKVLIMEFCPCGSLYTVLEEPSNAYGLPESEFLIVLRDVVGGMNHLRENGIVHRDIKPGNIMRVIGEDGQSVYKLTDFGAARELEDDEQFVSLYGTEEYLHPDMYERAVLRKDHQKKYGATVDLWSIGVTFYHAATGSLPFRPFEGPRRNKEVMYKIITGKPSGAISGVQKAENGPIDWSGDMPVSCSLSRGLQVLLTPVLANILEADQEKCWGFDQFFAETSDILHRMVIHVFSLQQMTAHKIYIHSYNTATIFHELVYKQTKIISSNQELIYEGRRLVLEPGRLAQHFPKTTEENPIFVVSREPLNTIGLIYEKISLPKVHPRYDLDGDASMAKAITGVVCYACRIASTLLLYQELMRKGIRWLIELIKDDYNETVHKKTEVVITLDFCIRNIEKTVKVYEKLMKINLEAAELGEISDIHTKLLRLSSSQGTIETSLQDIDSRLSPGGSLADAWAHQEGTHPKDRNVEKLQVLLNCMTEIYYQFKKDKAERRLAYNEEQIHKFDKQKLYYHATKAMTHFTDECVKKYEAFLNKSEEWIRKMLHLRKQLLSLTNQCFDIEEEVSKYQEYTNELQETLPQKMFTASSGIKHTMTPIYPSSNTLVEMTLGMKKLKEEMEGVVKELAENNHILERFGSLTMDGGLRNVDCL

Experiment [1] deals with biotinylated TNF (UniProt P01375). Put plainly: affinity purification with mass spectrometry.
For experiment [2] the target is unchanged. Put plainly: affinity purification with mass spectrometry. This is another data set of the same source.

Like-named read-outs stand apart in the source and are kept apart here. Results are given in words; binding and its absence hold for the method and conditions named. Binding seen in cells or lysates may run through a third protein. These calls come from enrichment with a bait or labelling near it, and not all partners need be listed.

Turning to TBK1 (from UniProt Q9UHD2 1-729), the binding result in the experiment with biotinylated TNF [1] is listed as “binds”.

B1: A20 (protein, UniProt P21580)
chain: MAEQVLPQALYLSNMRKAVKIRERTPEDIFKPTNGIIHHFKTMHRYTLEMFRTCQFCPQFREIIHKALIDRNIQATLESQKKLNWCREVRKLVALKTNGDGNCLMHATSQYMWGVQDTDLVLRKALFSTLKETDTRNFKFRWQLESLKSQEFVETGLCYDTRNWNDEWDNLIKMASTDTPMARSGLQYNSLEEIHIFVLCNILRRPIIVISDKMLRSLESGSNFAPLKVGGIYLPLHWPAQECYRYPIVLGYDSHHFVPLVTLKDSGPEIRAVPLVNRDRGRFEDLKVHFLTDPENEMKEKLLKEYLMVIEIPVQGWDHGTTHLINAAKLDEANLPKEINLVDDYFELVQHEYKKWQENSEQGRREGHAQNPMEPSVPQLSLMDVKCETPNCPFFMSVNTQPLCHECSERRQKNQNKLPKLNSKPGPEGLPGMALGASRGEAYEPLAWNPEESTGGPHSAPPTAPSPFLFSETTAMKCRSPGCPFTLNVQHNGFCERCHNARQLHASHAPDHTRHLDPGKCQACLQDVTRTFNGICSTCFKRTTAEASSSLSTSLPPSCHQRSKSDPSRLVRSPSPHSCHRAGNDAPAGCLSQAARTPGDRTGTSKCRKAGCVYFGTPENKGFCTLCFIEYRENKHFAAASGKVSPTASRFQNTIPCLGRECGTLGSTMFEGYCQKCFIEAQNQRFHEAKRTEEQLRSSQRRDVPRTTQSTSRPKCARASCKNILACRSEELCMECQHPNQRMGPGAHRGEPAPEDPPKQRCRAPACDHFGNAKCNGYCNECFQFKQMYG
Regarding B1, the binding entry in the experiment with biotinylated TNF [2] is recorded as “binds”.

B2: TAK1 (protein, UniProt O43318 1-606)
chain: MSTASAASSSSSSSAGEMIEAPSQVLNFEEIDYKEIEVEEVVGRGAFGVVCKAKWRAKDVAIKQIESESERKAFIVELRQLSRVNHPNIVKLYGACLNPVCLVMEYAEGGSLYNVLHGAEPLPYYTAAHAMSWCLQCSQGVAYLHSMQPKALIHRDLKPPNLLLVAGGTVLKICDFGTACDIQTHMTNNKGSAAWMAPEVFEGSNYSEKCDVFSWGIILWEVITRRKPFDEIGGPAFRIMWAVHNGTRPPLIKNLPKPIESLMTRCWSKDPSQRPSMEEIVKIMTHLMRYFPGADEPLQYPCQYSDEGQSNSATSTGSFMDIASTNTSNKSDTNMEQVPATNDTIKRLESKLLKNQAKQQSESGRLSLGASRGSSVESLPPTSEGKRMSADMSEIEARIAATTAYSKPKRGHRKTASFGNILDVPEIVISGNGQPRRRSIQDLTVTGTEPGQVSSRSSSPSVRMITTSGPTSEKPTRSHPWTPDDSTDTNGSDNSIPMAYLTLDHQLQPLAPCPNSKESMAVFEQHCKMAQEYMKVQTEIALLLQRKQELVAELDQDEKDQQNTSRLVQEHKKLLDENKSLSTYYQQCKKQLEVIRSQQQKRQGTS
As to B2, in the experiment with biotinylated TNF [2], the binding result is listed as “binds”.

B3: IKKe (protein, UniProt Q14164 1-716)
chain: MQSTANYLWHTDDLLGQGATASVYKARNKKSGELVAVKVFNTTSYLRPREVQVREFEVLRKLNHQNIVKLFAVEETGGSRQKVLVMEYCSSGSLLSVLESPENAFGLPEDEFLVVLRCVVAGMNHLRENGIVHRDIKPGNIMRLVGEEGQSIYKLTDFGAARELDDDEKFVSVYGTEEYLHPDMYERAVLRKPQQKAFGVTVDLWSIGVTLYHAATGSLPFIPFGGPRRNKEIMYRITTEKPAGAIAGAQRRENGPLEWSYTLPITCQLSLGLQSQLVPILANILEVEQAKCWGFDQFFAETSDILQRVVVHVFSLSQAVLHHIYIHAHNTIAIFQEAVHKQTSVAPRHQEYLFEGHLCVLEPSVSAQHIAHTTASSPLTLFSTAIPKGLAFRDPALDVPKFVPKVDLQADYNTAKGVLGAGYQALRLARALLDGQELMFRGLHWVMEVLQATCRRTLEVARTSLLYLSSSLGTERFSSVAGTPEIQELKAAAELRSRLRTLAEVLSRCSQNITETQESLSSLNRELVKSRDQVHEDRSIQQIQCCLDKMNFIYKQFKKSRMRPGLGYNEEQIHKLDKVNFSHLAKRLLQVFQEECVQKYQASLVTHGKRMRVVHETRNHLRLVGCSVAACNTEAQGVQESLSKLLEELSHQLLQDRAKGAQASPPPIAPYPSPTRKDLLLHMQELCEGMKLLASDLLDNNRIIERLNRVPAPPDV
On to B3, for which the binding entry with biotinylated TNF [2] was “binds”.
